For 2 molecules, binding results are on record in paper PMC4521966.

No constants are given. Whether binding was seen depends on the method and setting. Binding seen in cells or lysates may run through a third protein. These calls come from enrichment with a bait or labelling near it, and not all partners need be listed. Tags and fused reporters may be left off the sequences shown.

This experiment has as its target T1, C-terminal FLAG-tagged mouse WDR72 (WD repeat-containing protein 72) (mouse) (UniProt D3YYM4).
T1 sequence: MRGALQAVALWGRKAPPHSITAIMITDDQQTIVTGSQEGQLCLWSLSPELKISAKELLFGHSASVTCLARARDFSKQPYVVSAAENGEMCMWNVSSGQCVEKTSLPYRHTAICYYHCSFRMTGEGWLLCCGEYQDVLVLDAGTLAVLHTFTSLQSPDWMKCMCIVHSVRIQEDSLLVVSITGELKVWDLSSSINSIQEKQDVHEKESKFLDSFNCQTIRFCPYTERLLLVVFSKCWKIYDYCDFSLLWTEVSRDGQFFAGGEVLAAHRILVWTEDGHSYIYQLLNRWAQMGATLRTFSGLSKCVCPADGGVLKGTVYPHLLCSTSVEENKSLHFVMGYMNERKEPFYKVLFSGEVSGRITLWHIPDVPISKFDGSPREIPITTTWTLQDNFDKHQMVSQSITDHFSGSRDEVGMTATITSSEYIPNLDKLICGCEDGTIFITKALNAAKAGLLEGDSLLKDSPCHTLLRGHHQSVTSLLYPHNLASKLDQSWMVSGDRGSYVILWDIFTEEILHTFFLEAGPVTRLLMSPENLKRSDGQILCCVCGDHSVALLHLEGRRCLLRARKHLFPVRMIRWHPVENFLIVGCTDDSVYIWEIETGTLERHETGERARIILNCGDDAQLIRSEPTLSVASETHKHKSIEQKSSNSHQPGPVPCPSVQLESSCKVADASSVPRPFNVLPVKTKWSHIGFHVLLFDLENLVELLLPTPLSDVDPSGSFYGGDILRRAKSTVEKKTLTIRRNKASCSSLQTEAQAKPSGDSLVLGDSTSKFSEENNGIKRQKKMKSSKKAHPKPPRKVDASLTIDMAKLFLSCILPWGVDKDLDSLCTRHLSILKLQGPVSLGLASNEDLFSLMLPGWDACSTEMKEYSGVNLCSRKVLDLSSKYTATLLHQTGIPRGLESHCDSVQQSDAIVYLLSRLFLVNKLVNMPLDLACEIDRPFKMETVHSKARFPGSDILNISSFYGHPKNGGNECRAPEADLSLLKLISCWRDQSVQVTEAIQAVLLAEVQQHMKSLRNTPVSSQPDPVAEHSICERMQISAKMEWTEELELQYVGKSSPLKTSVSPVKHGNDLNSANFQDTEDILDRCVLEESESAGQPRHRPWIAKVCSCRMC
In words: affinity purification with mass spectrometry; C-terminal FLAG-tagged mouse WDR72 overexpressed in HEK293; NP40 lysate; anti-FLAG antibody on protein A Dynabeads, 30 min at room temperature, washed twice; six CBB-stained bands cut from the SDS-PAGE gel, trypsin, LC-MS/MS.

B1: EDC4 (protein, UniProt Q6P2E9 1-1401)
chain: MASCASIDIEDATQHLRDILKLDRPAGGPSAESPRPSSAYNGDLNGLLVPDPLCSGDSTSANKTGLRTMPPINLQEKQVICLSGDDSSTCIGILAKEVEIVASSDSSISSKARGSNKVKIQPVAKYDWEQKYYYGNLIAVSNSFLAYAIRAANNGSAMVRVISVSTSERTLLKGFTGSVADLAFAHLNSPQLACLDEAGNLFVWRLALVNGKIQEEILVHIRQPEGTPLNHFRRIIWCPFIPEESEDCCEESSPTVALLHEDRAEVWDLDMLRSSHSTWPVDVSQIKQGFIVVKGHSTCLSEGALSPDGTVLATASHDGYVKFWQIYIEGQDEPRCLHEWKPHDGRPLSCLLFCDNHKKQDPDVPFWRFLITGADQNRELKMWCTVSWTCLQTIRFSPDIFSSVSVPPSLKVCLDLSAEYLILSDVQRKVLYVMELLQNQEEGHACFSSISEFLLTHPVLSFGIQVVSRCRLRHTEVLPAEEENDSLGADGTHGAGAMESAAGVLIKLFCVHTKALQDVQIRFQPQLNPDVVAPLPTHTAHEDFTFGESRPELGSEGLGSAAHGSQPDLRRIVELPAPADFLSLSSETKPKLMTPDAFMTPSASLQQITASPSSSSSGSSSSSSSSSSSLTAVSAMSSTSAVDPSLTRPPEELTLSPKLQLDGSLTMSSSGSLQASPRGLLPGLLPAPADKLTPKGPGQVPTATSALSLELQEVEPLGLPQASPSRTRSPDVISSASTALSQDIPEIASEALSRGFGSSAPEGLEPDSMASAASALHLLSPRPRPGPELGPQLGLDGGPGDGDRHNTPSLLEAALTQEASTPDSQVWPTAPDITRETCSTLAESPRNGLQEKHKSLAFHRPPYHLLQQRDSQDASAEQSDHDDEVASLASASGGFGTKVPAPRLPAKDWKTKGSPRTSPKLKRKSKKDDGDAAMGSRLTEHQVAEPPEDWPALIWQQQRELAELRHSQEELLQRLCTQLEGLQSTVTGHVERALETRHEQEQRRLERALAEGQQRGGQLQEQLTQQLSQALSSAVAGRLERSIRDEIKKTVPPCVSRSLEPMAGQLSNSVATKLTAVEGSMKENISKLLKSKNLTDAIARAAADTLQGPMQAAYREAFQSVVLPAFEKSCQAMFQQINDSFRLGTQEYLQQLESHMKSRKAREQEAREPVLAQLRGLVSTLQSATEQMAATVAGSVRAEVQHQLHVAVGSLQESILAQVQRIVKGEVSVALKEQQAAVTSSIMQAMRSAAGTPVPSAHLDCQAQQAHILQLLQQGHLNQAFQQALTAADLNLVLYVCETVDPAQVFGQPPCPLSQPVLLSLIQQLASDLGTRTDLKLSYLEEAVMHLDHSDPITRDHMGSVMAQVRQKLFQFLQAEPHNSLGKAARRLSLMLHGLVTPSLP
On to B1, for which the binding entry was “binds”.

B2: EXOSC10 (protein, UniProt Q01780 1-885)
chain: MAPPSTREPRVLSATSATKSDGEMVLPGFPDADSFVKFALGSVVAVTKASGGLPQFGDEYDFYRSFPGFQAFCETQGDRLLQCMSRVMQYHGCRSNIKDRSKVTELEDKFDLLVDANDVILERVGILLDEASGVNKNQQPVLPAGLQVPKTVVSSWNRKAAEYGKKAKSETFRLLHAKNIIRPQLKFREKIDNSNTPFLPKIFIKPNAQKPLPQALSKERRERPQDRPEDLDVPPALADFIHQQRTQQVEQDMFAHPYQYELNHFTPADAVLQKPQPQLYRPIEETPCHFISSLDELVELNEKLLNCQEFAVDLEHHSYRSFLGLTCLMQISTRTEDFIIDTLELRSDMYILNESLTDPAIVKVFHGADSDIEWLQKDFGLYVVNMFDTHQAARLLNLGRHSLDHLLKLYCNVDSNKQYQLADWRIRPLPEEMLSYARDDTHYLLYIYDKMRLEMWERGNGQPVQLQVVWQRSRDICLKKFIKPIFTDESYLELYRKQKKHLNTQQLTAFQLLFAWRDKTARREDESYGYVLPNHMMLKIAEELPKEPQGIIACCNPVPPLVRQQINEMHLLIQQAREMPLLKSEVAAGVKKSGPLPSAERLENVLFGPHDCSHAPPDGYPIIPTSGSVPVQKQASLFPDEKEDNLLGTTCLIATAVITLFNEPSAEDSKKGPLTVAQKKAQNIMESFENPFRMFLPSLGHRAPVSQAAKFDPSTKIYEISNRWKLAQVQVQKDSKEAVKKKAAEQTAAREQAKEACKAAAEQAISVRQQVVLENAAKKRERATSDPRTTEQKQEKKRLKISKKPKDPEPPEKEFTPYDYSQSDFKAFAGNSKSKVSSQFDPNKQTPSGKKCIAAKKIKQSVGNKSMSFPTGKSDRGFRYNWPQR
Take B2: the binding entry is recorded as “binds”.
